One series addresses HER2 (ERBB2) (UniProt P04626). Put plainly: SELEX. The settings on record: purified recombinant protein; protein details: His tag, on Ni magnetic beads; single-stranded DNA.
The next series deals with EpCAM (UniProt P16422). Put plainly: SELEX. The settings on record: identified by library screening to recognize EpCAM; protein on the cell surface.

By UniProt entry, the sequences of proteins in these tests, tags left out. Residues count along the entry.
UniProt P16422, 24-314: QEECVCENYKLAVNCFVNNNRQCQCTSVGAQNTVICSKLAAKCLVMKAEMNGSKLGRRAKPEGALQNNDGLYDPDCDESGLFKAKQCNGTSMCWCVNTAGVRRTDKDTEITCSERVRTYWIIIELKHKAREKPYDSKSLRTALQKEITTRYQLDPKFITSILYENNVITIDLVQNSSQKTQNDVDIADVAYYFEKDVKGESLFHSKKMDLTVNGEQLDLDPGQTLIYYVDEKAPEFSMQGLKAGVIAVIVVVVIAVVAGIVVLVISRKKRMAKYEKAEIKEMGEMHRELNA

The exact form of at least one protein or probe is not confirmed. For part of these data: Where cells or extracts were used, other partners may take part.

Regarding “AACCCCGGCACCCCCGTCCCCCTTCGATCTGGTCA [HER2 binder 3048]”, the selection result in the series with HER2 (ERBB2) was “selected”.

For the sequence “AATACCCGCCGCCCCGTACCAATACGCTCCGCACC [HER2 binder 3059]”, the selection result with HER2 (ERBB2) was “selected”. For “ACCCATCCCACCGCTTAGAGCGCACGCCCCTCCTCTGA [HER2 binder 3057]”, in the series with HER2 (ERBB2), the selection result is recorded as “selected”. On the same count and under the same terms, in the case of “ACCCATGTGCACCTCCTTCCCGCCTCATCGGGATT [HER2 binder 3044]” it was “selected”. Regarding “ACTCCACCGCTCACCACGCCCAGTGAGCCATCCCT [HER2 binder 3055]”, in the series with HER2 (ERBB2), the selection result is “selected”. For “ATCCCCCAGGCCCCCCTCCACGGCCAATTCCTTGG [HER2 binder 3042]”, the selection result in the series with HER2 (ERBB2) is listed as “selected”. On the same count and under the same terms, under “ATGCCTGCCCAACCCCCTGCCGTCGATTACACCGTA [HER2 binder 3046]” stands “selected”. Regarding “AUCCAGAGUGACGCAGCAGUCUUUUCUGAUGGACACGUGGUGGUCUAGUAUCACUAAGCCACCGUGUCCA [CAR003]”, in the series with EpCAM, the selection result is “selected”. As for “CACACCGGTGGCGGGGCAAGAATGGTGGTGGTGGAGA [HER2 binder 3050]”, the selection result with HER2 (ERBB2) is on record as “selected”. “CCACGCCCTGGATGTCGCGTTCACTGGTTCTCCCC [HER2 binder 3039]”: the selection result in the series with HER2 (ERBB2) is “selected”.

In the case of “CCGCACCAACCCAACACACACGAGGTGATGCCCCC [HER2 binder 3056]”, the selection result with HER2 (ERBB2) is given as “selected”. The same measure, in the same setting: under “GACGCCCCCGCCGTTACCACCACCCGCACTTGAA [HER2 binder 3049]” stands “selected”; under “GCCCCAGTCCGCCATCCAGATCCCTGCTCCACCTG [HER2 binder 3054]”, “selected”.

Take “GCGACCCCGCCCACACCCGTTACATCAACTGTTCG [HER2 binder 3052]”: in the series with HER2 (ERBB2), the selection result is listed as “selected”. On to “GTACCCGCCCCCCCCAATGACGCGTTATGCGCCCC [HER2 binder 3060]”, for which the selection result with HER2 (ERBB2) is “selected”. Still for that read-out and setting: in the case of “GTGCCCCCTTGTCCGTATCGCCCTTCATCCACGTGTGA [HER2 binder 3045]” it was “selected”.

Consider “GTGCTCGCACGATCCCTACCCCCCCGTAGCACCCA [HER2 binder 3043]”, for which the selection result with HER2 (ERBB2) was “selected”.

“TCAACCGCCGCACGAGCCACCTCTGCACTCCACGC [HER2 binder 3051]”: the selection result in the series with HER2 (ERBB2) is recorded as “selected”. The same measure, in the same setting: under “TCCACCCGCCCCGACGCGCAACCTAGCCTCAAGCCA [HER2 binder 3053]” stands “selected”. On the same count and under the same terms, in the case of “TCCACGCCCCATCAGCACGTCGGCCTCATACTCCCA [HER2 binder 3047]” it was “selected”; in that of “TCCGCCCTGGTCGCCGCTTCCCCCTGCCGTTTGTT [HER2 binder 3040]”, “selected”; in that of “TGCCCATCCTCCACCCCTCGTGCCGTCGATCCCAC [HER2 binder 3061]”, “selected”. Consider “TTGACTCGCACGCACACACATCACGCACCACCTGC [HER2 binder 3058]”, for which, in the series with HER2 (ERBB2), the selection result is “selected”. In the case of “TTGGCCCCAGCCACACACCCGTGCTTACCACCCCC [HER2 binder 3041]”, in the series with HER2 (ERBB2), the selection result is “selected”.
